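Assay of Toxoplasma gondii numbers, read through their beta-galactosidase reporter with a colour substrate. Tested at 10 µM. Higher reads as fewer parasites (inferred from which compounds were picked for retests). Size under these conditions: about 67,000 compounds, about 260 of them at 50% or above in at least one test.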

Each number is a percent effect as filed.
How 0% and 100% were set is not recorded. Most values in the screen are low, and negative values occur.
Compounds were drawn at random from those tested, without regard to their results.

Compound,effect
CCN1CCN(c2ccc(CNC(=O)c3ccccc3F)cn2)CC1,-1.689
Cc1cnn(C2CCCN(C(=O)C3=NN(C)C(=O)CC3)C2)c1 (configuration not stated),5.342
Cc1nnc(CN2CCN(Cc3nccn3C)CC2)n1C,3.161
Cn1ncc2c1CCCC2NCc1ccc(OCc2cccnc2)cc1 (configuration not stated),-5.912
CC(C)NC(=O)CCNC(=O)CCc1cc(Cl)cs1,10
O=C(Nc1ccc(F)cc1F)NC1(CO)CCOCC1,-48.03
CCC(CC)(CC(=O)OC)NC(=O)Nc1nnc(-c2ccccn2)s1,-0.1827
CCN1CC2(CC1=O)CN(Cc1ccc(C)o1)CCN(C(=O)C(C)C)C2.O=C(O)C(F)(F)F (configuration not stated),-7.958
CC(CCN1CCn2nc(CNC(=O)N(C)C)cc2C1)c1ccccc1 (configuration not stated),0.6924
CCc1cc(N2CCC(NCCSc3nnnn3C)CC2)nc(C)n1,10.54
O=C(O)C(F)(F)F.[H][C@@]12CCN(Cc3scnc3C)C[C@]1(c1nc(C)no1)CCO2,-0.5807
Cc1ccc(Oc2cc(F)ccc2O[C@@H]2CCC[C@@H](N)[C@H]2O)cc1,82.52
CCc1[nH]c2c(CNc3nc(C)cc(NC)n3)cc(C)cc2c1C,19.98
CC(C)Oc1cccc(C(=O)C2CCCN(C(=O)c3ccoc3)C2)c1 (configuration not stated),4.153
CC(C)S(=O)(=O)Cc1cccc(NC(=O)c2ccc[nH]2)c1,-7.036
CCNC(=O)C1CCN(Cn2nc(-c3ccc(F)cc3)oc2=O)CC1,-6.415
[H][C@@]12OCCC[C@]1([H])N(C(=O)c1cccc(C)n1)C[C@@H]2NS(C)(=O)=O,-8.059
Cc1nc(-c2ccccc2)nc2c1CCN(Cc1nccn1C)CC2,-6.719
CCn1ccc(-c2cc(NCCCOc3ccccc3C)nc(C)n2)n1,48.39
COCc1ccc(C(=O)N2CCN(CC(C)O)CC2)cc1 (configuration not stated),-2.94
Cc1ccc(CN2CCCC3(CCN(Cc4ccoc4)CC3)C2)cc1.O=C(O)C(F)(F)F.O=C(O)C(F)(F)F,15.99
COc1ccc(CN(C)CC(=O)c2ccc3[nH]c(=O)[nH]c3c2)cc1F,12.62
Cc1ncc(CN2CCOC(CNc3cccnn3)C2)s1 (configuration not stated),-10.11
O=C(NCCNc1ncccn1)N1CC=C(c2ccccc2)CC1,-0.8246
COC(=O)CS(=O)(=O)CCC(=O)N1CCCC1c1ccsc1 (configuration not stated),-5.409
CCCc1cc(C(=O)NCCn2nc3ccccn3c2=O)[nH]n1,2.245
CCN(CC1CCOC1)C(=O)c1cccnc1N1CCOCC1 (configuration not stated),-0.06277
CC(=O)N1CCCC1c1nccnc1Nc1ncccn1 (configuration not stated),-0.7756
[H][C@@]12COC[C@]1(COCc1cccnc1)CN(C(=O)c1csc(C)n1)C2,-0.2257
Cc1ccc(C2CN(CCS(C)(=O)=O)CCO2)c(C)c1 (configuration not stated),2.551
CNc1cc(C2CCCN2Cc2ccccc2OCC(=O)O)ccn1 (configuration not stated),-9.289
Cc1cc2c(=O)n(CCSc3ncn[nH]3)cnc2s1,-7.647
CC(C)c1ccc(OCC(=O)N2CCOCC2c2ncon2)cc1 (configuration not stated),35.03
COc1ccc(-n2c(SC)nc(O)c(Cc3ccccc3)c2=O)cc1,-3.483
CNC(=O)C1CCCCN1C(=O)c1sc(-c2ccc(C)o2)nc1C (configuration not stated),0.5643
O=C(NCCCOCC1CC1)Nc1ccc(-n2cncn2)c(F)c1,-27.62
NC(=O)NC1CCN(Cc2ccc(Br)c(F)c2)CC1,2.483
Cc1cc(C)n2c(CNCc3ccc(OC(F)F)cc3)cnc2n1,-9.993
CCC(C)(C)N(C)CCOc1cccc(S(C)(=O)=O)c1,-13.52
N#Cc1ccc(CN(CCF)Cc2cccc(F)c2)cc1,-7.344
CN(Cc1cnn(C)c1)C(=O)CCS(=O)(=O)c1ccc2c(c1)OCCO2,8.34
O=C1CNCC(C(=O)N2CC(Oc3ccccc3Cl)C2)N1 (configuration not stated),1.37
COCCN1CCCC2(CCN(c3nc(C)nc4ccsc34)C2)C1=O (configuration not stated),0.4566
Cn1c(=O)ccn(CC(=O)N2CCCC(n3cccn3)C2)c1=O (configuration not stated),-2.641
Cc1cc(C)n(CC(C)Nc2nc(C)nc3c2CCNC3)n1 (configuration not stated),12.03
N#Cc1ccnc(N2CCC(NCCN3CCCC3)CC2)c1,-2.634
c1ccn2c(SCC3CN=C(N4CCOCC4)S3)ncc2c1 (configuration not stated),-2.316
C=C(C)CNC(=O)C1CCC(=O)N(C2CCCC2)C1 (configuration not stated),-3.984
Cc1cc(C)c(CNC(=O)C2CCN(c3cnccn3)CC2)c(=O)[nH]1,-25.83
CCc1csc(CNC2CCN(c3ccc(C)cc3)CC2)n1,-8.603
CN1CCCC1c1cc2cccnc2n1Cc1ccc(F)cc1.Cl (configuration not stated),-8.673
O=C(O)C(F)(F)F.O=C(O)C(F)(F)F.[H][C@]12CCN(S(=O)(=O)CC)CC[C@@]1([H])S(=O)(=O)CCN2Cc1cccnc1,26.96
COCC1c2nnn(CC3CC3)c2CCN1C(=O)c1ccncn1 (configuration not stated),-3.151
CO[C@@H]1CCC[C@@H](NC(=O)C(C)(C)c2cccc(F)c2)[C@H]1O,12.84
O=C(NCCn1ccnc1)c1ccn(-c2ccc(F)cc2)n1,-7.406
O=C1Nc2ccccc2C12CCCN(Cc1ccc3c(c1)OCCO3)C2 (configuration not stated),6.456
CC(=O)N1CCC2(CC1)CN(C(=O)C1CC1)c1ccc(F)cc12,0.4757
CC(C)C(=O)NCc1ccc(N(C)C)cc1,5.187
CC(C)c1ccc(OCCNC(=O)c2ccoc2)cc1,-14.17
CCn1cnc2c(cnn2-c2cccc(C)c2C)c1=O,-0.9455
[H][C@]12CCCCN1CCC[C@H]2CCC(=O)NCCc1cc(O)nc(C)n1,-22.31
CCCOCC(=O)N1CCc2c(cccc2S(=O)(=O)N2CCOCC2)C1,10.5
Cc1cnn(CCNCc2nc(Cc3ccccc3)no2)c1,-15.24
CCCN1CCCN(C(=O)c2oc(C)nc2C)CC1,2.553
Cc1c[nH]c(C2CN(Cc3ccccc3C(=O)O)CCO2)n1 (configuration not stated),14.75
CC(C)(C)n1ncc(NCC(O)c2ccc(F)c(F)c2)c(Cl)c1=O (configuration not stated),5.172
Cn1c(CN2CCOC(Cn3cncn3)C2)nc2ccccc21 (configuration not stated),-5.513
Cc1noc(C)c1CN(C)C(=O)c1n[nH]c(N)c1-c1ccccc1,-9.514
CC(=O)NC1CCCN(C(=O)NCc2ccc(-n3cccn3)cc2)C1 (configuration not stated),-15.78
O=C(Cc1cccc(O)c1)N1CCCC(O)(CN2CCOCC2)CC1 (configuration not stated),5.943
CC(C)S(=O)(=O)N1CCCC(c2nnc(Cn3ccnc3)n2C)C1 (configuration not stated),20.35
Cc1[nH]c2ccccc2c1-c1ccnc(N[C@@H](CO)C(C)C)n1,48.14
CN(C)c1ncccc1CNS(=O)(=O)c1c(F)cccc1F,-0.6632
CC(NC(=O)CN1C=Nc2ccccc2S1(=O)=O)C1CC1 (configuration not stated),0.6952
O=C(O)C(F)(F)F.O=C(O)C(F)(F)F.c1ccc(CN2CCC3(CC2)CN(c2ccccn2)CCO3)nc1,2.11
CC(C)n1cc(C(=O)NCCc2cn3ccsc3n2)cn1,-8.134
Cc1cccc(N2CC(c3nnc(N)s3)CC2=O)c1 (configuration not stated),-12.63
OC(COCc1ccccc1)CN1CCC(Cn2cccn2)CC1 (configuration not stated),7.879
CC(C)=CCN1CC2(CCN(Cc3ncc[nH]3)CC2)CC1=O,7.183
CCn1c2c(ccc1=O)CC(NCc1cnn(C)c1)CC2 (configuration not stated),-21.57
Cc1cnc(-n2cnnc2)c(-c2cccc3c2CCNC3)c1,-6.331
Cc1nnc(CN(C)C2CCN(Cc3nc4ccccc4n3C)C2)o1 (configuration not stated),-1.977

Some entries from above, unchanged:

Compound	effect
CC(C)S(=O)(=O)Cc1cccc(NC(=O)c2ccc[nH]2)c1	-7.036
Cc1cc(C)n(CC(C)Nc2nc(C)nc3c2CCNC3)n1 (configuration not stated)	12.03
Cc1ccc(Oc2cc(F)ccc2O[C@@H]2CCC[C@@H](N)[C@H]2O)cc1	82.52
CC(C)=CCN1CC2(CCN(Cc3ncc[nH]3)CC2)CC1=O	7.183
CN(Cc1cnn(C)c1)C(=O)CCS(=O)(=O)c1ccc2c(c1)OCCO2	8.34
NC(=O)NC1CCN(Cc2ccc(Br)c(F)c2)CC1	2.483

Source: ChEMBL document CHEMBL3988442, “University of Dundee, Small-Polar-MMV Screening Library” (2021).